PMC10911279
These are yes or no findings as the source states them, for the method shown. In cells and extracts the contact can be indirect. A yes stands for co-enrichment or nearness to the bait. Other partners may have been found. Where a sequence is shown, tags or fusion partners need not be part of it.

By UniProt entry, the sequences of proteins in these tests, tags left out.
UniProt Q27331: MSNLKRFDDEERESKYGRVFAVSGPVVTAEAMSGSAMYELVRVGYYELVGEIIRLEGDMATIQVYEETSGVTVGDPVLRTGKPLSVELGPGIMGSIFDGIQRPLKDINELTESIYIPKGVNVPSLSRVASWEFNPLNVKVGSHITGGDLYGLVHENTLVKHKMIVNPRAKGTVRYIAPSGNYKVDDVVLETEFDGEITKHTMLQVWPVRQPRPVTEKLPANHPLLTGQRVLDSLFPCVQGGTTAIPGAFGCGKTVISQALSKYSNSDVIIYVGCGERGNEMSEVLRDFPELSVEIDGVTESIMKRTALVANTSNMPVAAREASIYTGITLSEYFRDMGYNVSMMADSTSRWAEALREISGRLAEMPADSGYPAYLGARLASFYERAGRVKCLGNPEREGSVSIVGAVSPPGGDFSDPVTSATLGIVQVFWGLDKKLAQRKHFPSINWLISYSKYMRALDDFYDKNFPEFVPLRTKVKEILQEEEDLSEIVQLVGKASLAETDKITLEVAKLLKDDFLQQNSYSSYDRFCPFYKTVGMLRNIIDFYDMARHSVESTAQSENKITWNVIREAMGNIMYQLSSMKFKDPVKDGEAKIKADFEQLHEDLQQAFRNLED

B1: Git (G protein-coupled receptor kinase interacting ArfGAP) (protein, UniProt Q95RG8 1-731)
chain: MCFASSIIEAHRKLFIAPPDLDHSDPATPTISTRSKMPRGKSRLQTEVCGDCGAGDPSWASINRGILLCADCCSVHRSLGRHISIVKSLRQGNWEPSVLNFVNSLNAHGANSVWEHHLLDGSTNSTGGKHVPRWRKPTPKDALHPTKSDFIKAKHVNLTFVLKPSLQDDDDGNGSAGCLEQELSRQLHASVRTSNLETSLRFLVQGADPNYYHEDKLSTPLHMAAKFGQASQIEMLLIYGADVNALDGNGMTPLELARANNHNTIAERLLDAMYDVTDRIITFLGGKKPDHASGRHMIIPDANGADISEQLKIARGKLQLVPNKMFEELVMDLYDEVDRRECEAIWSTSTLNADHATVPFLPANPFLSATRNQGRQKLARFNRAEFTGLLTDVLVDAMRRQNMANLRPMDAPVAGHQSLQSLPYANNSMLLGSFEQGGHDPNLSDDEPIYDPVASDDDYAPVPPMAQQAIVHTPPRSANSHNEMETLRKQLNDYKSEINQLKNVVQMLSSENTQLKSKFSSASNNSVYDEPLRIDLSLSSPDTEHEPLSLPEGGTANGESGSSNDSSNQSTIKRPASMYERRLVPNVAKGNTDIRNTTSMYQMAGDGKPFGEEVKVRSDLVTRRLKELIRAMQPVPEDQKQSIAPHGELIRSAVTDLIALYANLPPNASDPSRETLKLLTRQNILIQHECENLQKAIEADDKQAIQKNTLEVRDCAFHIASAIKTLVLQFY

Target: T1, Vap33-YFP (endogenously YFP-tagged Vap33) (Drosophila (endogenous in embryos)) (UniProt Q9W4N8)
T1 sequence: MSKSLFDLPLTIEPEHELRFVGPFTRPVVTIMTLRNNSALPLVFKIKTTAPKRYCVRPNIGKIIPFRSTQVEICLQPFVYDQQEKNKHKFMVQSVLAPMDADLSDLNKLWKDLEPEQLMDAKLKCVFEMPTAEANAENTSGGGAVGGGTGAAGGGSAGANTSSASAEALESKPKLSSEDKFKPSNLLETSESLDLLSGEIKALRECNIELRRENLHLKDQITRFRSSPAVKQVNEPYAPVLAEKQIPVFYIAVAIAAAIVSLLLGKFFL
Experiment: affinity purification with mass spectrometry; Vap33-YFP captured from Drosophila embryo extracts on GFP-Trap resin (GFP nanobody); Default Lysis Buffer (50 mM Tris-HCl pH 7.5, 125 mM NaCl, 0.2% IGEPAL); three biological replicates against yw controls; SAINT analysis

**Q.** “RtGEF (Rho-type guanine nucleotide exchange factor) (Drosophila (endogenous in embryos))” was tested. Which binding did it give?
**A.** The binding was “binds”.

**Q.** “Vha68-2 (V-ATPase component) (from UniProt Q27331 1-614)” was tested. Which binding did it give?
**A.** The binding was “binds”.

**Q.** With B1 as the molecule, how does the binding read?
**A.** Its binding is “binds”.
